The target of assay [1] is [35S]-labeled Flag-P4HA1 fused protein (human) (UniProt P13674). Kind of assay: GST pulldown, SDS-PAGE and autoradiography.
Assay [2] has the same target. Kind of assay: GST pulldown, autoradiograph (FIG. 2).

The chains behind the UniProt entries cited, without tags or fusion partners. Where a name states a change or a piece, a line headed by the entry shows the natural chain unless it says otherwise.
UniProt P13674: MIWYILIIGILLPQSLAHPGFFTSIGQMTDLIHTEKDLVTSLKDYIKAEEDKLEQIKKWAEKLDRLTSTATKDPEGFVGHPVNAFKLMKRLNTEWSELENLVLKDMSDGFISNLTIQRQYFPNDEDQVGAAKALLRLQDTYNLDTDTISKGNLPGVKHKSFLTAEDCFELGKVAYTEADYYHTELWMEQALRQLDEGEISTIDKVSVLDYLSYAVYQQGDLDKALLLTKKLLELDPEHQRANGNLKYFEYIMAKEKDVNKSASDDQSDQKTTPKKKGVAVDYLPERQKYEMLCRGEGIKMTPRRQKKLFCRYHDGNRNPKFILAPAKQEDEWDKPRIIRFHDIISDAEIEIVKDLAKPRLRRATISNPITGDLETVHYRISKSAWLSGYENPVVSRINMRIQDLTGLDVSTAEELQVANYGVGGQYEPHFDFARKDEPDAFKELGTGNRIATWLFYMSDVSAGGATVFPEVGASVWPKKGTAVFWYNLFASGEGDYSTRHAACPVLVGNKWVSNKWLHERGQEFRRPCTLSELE
UniProt Q86TM6: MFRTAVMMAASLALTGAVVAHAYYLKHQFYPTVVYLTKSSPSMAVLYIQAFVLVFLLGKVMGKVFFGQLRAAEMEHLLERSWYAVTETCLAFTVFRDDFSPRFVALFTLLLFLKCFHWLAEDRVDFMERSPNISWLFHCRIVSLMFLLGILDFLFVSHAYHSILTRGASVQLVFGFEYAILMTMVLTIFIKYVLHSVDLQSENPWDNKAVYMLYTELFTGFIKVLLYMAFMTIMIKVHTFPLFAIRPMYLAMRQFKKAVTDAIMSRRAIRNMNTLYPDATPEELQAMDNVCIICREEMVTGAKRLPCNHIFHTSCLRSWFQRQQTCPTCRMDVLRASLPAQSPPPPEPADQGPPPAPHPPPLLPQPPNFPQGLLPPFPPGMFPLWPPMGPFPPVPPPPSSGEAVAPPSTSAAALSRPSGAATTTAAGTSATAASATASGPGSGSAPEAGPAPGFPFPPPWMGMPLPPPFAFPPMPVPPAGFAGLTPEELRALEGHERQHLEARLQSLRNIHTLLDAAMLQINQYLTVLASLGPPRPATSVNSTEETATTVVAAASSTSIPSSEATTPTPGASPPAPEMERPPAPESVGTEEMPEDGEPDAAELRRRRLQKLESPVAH

For 2 substances, binding results are on record in US20070134720A1, “Method of detecting effect of controlling synoviolin activity” (priority 2003, published 2007).

These are yes or no findings as the source states them, for the method shown. In cells and extracts the contact can be indirect. Some binding calls cover weakened binding; strength is not graded here.

As to “GST-Syno dTM fused protein (from UniProt Q86TM6 236-617)”, the binding result in assay [1] and in assay [2] was “binds” throughout.
As for “GST-Syno RING fused protein (from UniProt Q86TM6 269-420)”, the binding result in assay [1] and in assay [2] was “binds” in each case.
